Primary screen of a compound library

From ChEMBL document CHEMBL3988442, “University of Dundee, Small-Polar-MMV Screening Library” (2021).

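Whole-cell assay for inhibitors of Mycobacterium tuberculosis growth, labelled Cornell in the record; the read-out is not stated. The concentration is filed as 10 mM, unlikely as a test dose, so the dose is not known. Higher means stronger inhibition (inferred from two other growth screens of the library). About 53,000 compounds were tested under these conditions; 1.7% (about 900) showed 50% or more at least once.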

Values are the deposited “Percent Effect”, in %.
The record does not define 0% and 100%; most values in the screen are far below 50% and negative numbers occur (in some assays of this library far below -100).
Compounds were drawn at random from those tested, without regard to their results.

structure	Percent Effect
Cc1ccc(C(=O)N2CCCC2c2nnc3n2CCCCC3)o1 (stereo not shown)	10.68
CC(C)C(=O)N1CCc2c(CN(C)Cc3ccco3)cncc2C1.Cl.Cl	42.85
Cc1ccc(Cl)cc1N1CCC(CNC(=O)CCn2ccnc2)C1 (stereo not shown)	-4.272
COC(=O)c1c(C(F)(F)F)cnc(OC)c1Cl	-24.82
COCC(=O)N1CCC(c2cc(C(F)(F)F)c3c(C)noc3n2)CC1	-29.31
NC(=O)C1CCN(C(=O)CCn2ccc3ccc(Br)cc32)CC1	3.622
Nc1nc(N2CCCCC2)ncc1C(=O)NCc1ccc(F)c(Cl)c1	46.12
O=S(=O)(c1cccnc1)N1CCN(Cc2nc(-c3cccs3)cs2)CC1	-1.473
COc1ccccc1CN1CC(O)CN(C(=O)OCC(C)C)CC1=O (stereo not shown)	-2.571
[H][C@@]12CN(c3nc(C)cc(C)n3)C[C@]1([H])N(CCc1cccc(Cl)c1)C(=O)O2	5.425
COCCOCC(=O)NC(C#N)c1cc(Cl)cc(Cl)c1 (stereo not shown)	6.532
Cn1cc(C2CC3(CCN(C(=O)c4ccsc4)CC3)NC2=O)cn1 (stereo not shown)	-25.37
CCOc1ccc(-c2ccc3c(c2)OCO3)cc1C(N)=O	21.86
COc1ccccc1N1CCN(C(=O)c2ccoc2)CC1	18.35
Cc1nc(S(=O)(=O)N2CCC3(CCCCC3)C2)cn1C	-41.25
Cc1cnn(CCNCC(=O)NC(c2ccccc2)c2ccccc2)c1	-12.39
Cn1cccc1C(=O)NCc1ccnc(C2CCCOC2)n1 (stereo not shown)	33.28
O=C(NCc1nc(C2CC2)no1)N1CCOC(c2ccccc2)C1 (stereo not shown)	22.21
c1ccc2sc(CN3CCCC3c3noc(C4CC4)n3)nc2c1 (stereo not shown)	50.21
Cc1ccc(CNC(=O)CCN2CCN(c3ccccn3)CC2)n1C	-91.45
CN1CC(=O)N(c2cccc(F)c2)CC12CCN(Cc1nccs1)C2.O=C(O)C(F)(F)F.O=C(O)C(F)(F)F (stereo not shown)	13.2
Cc1noc(C)c1CNc1cccc(C(=O)N(C)c2ccccc2)c1	-21.1
[H][C@]12CN(C(=O)CCc3ccsc3)CC[C@@]1(O)CCN(C(=O)COC)C2	-16.97
CCOc1cc(NC(=O)N2CCC3(CCOCC3)C2)ccc1C	4.939
O=C(NC1CCc2ccccc2C1)C1CCN(Cc2ccco2)CC1 (stereo not shown)	24.33
O=C(CN1CCC(C(=O)c2cc(F)ccc2F)CC1)NC1CC1	16.59
CNc1cccc(C2CCCN(C(=O)c3cscn3)C2)n1 (stereo not shown)	-110.5
Clc1ccc2c(c1)C=C(CNC1CCc3ncnn3C1)CO2 (stereo not shown)	21.17
CCC[C@@H]1CN(C(=O)c2ccccc2-c2ncc[nH]2)C[C@H]1N(C)C	1.642
Oc1nc(N2CCOCC2)nc2c1CCN(Cc1cccc(F)c1)CC2	-50.2
COCCN(Cc1nc2c(cnn2C)c(=O)[nH]1)Cc1ccco1	23.16
Cc1nc(NCc2ccccc2)cc(C(C)Cn2nc(C)c(C)c2C)n1 (stereo not shown)	27.52
COc1ccc(CNC(C)c2ccc3[nH]c(=O)[nH]c3c2)cc1 (stereo not shown)	-1.205
[H][C@@]12COC[C@H](C(=O)N3CCOCC3)[C@]1([H])CN(CC1CC1)C2	8.683
COCCN1CCOCC12CCN(C(=O)Cc1cccs1)CC2.O=C(O)C(F)(F)F	-59.12
Cc1nnc(C(C)N(C)Cc2c(C)nn(-c3ccccc3C)c2C)o1 (stereo not shown)	-1.828
CCC(=O)Nc1ccc2c(c1)CN(C(=O)c1ccco1)CC2	2.847
O=C(c1cc(-n2cccn2)ccn1)N(CC1CCC1)CC(F)(F)F	16.8
CCCC1(NC(=O)C(c2ccccc2C)N(C)C)CC1 (stereo not shown)	26.27
Cc1ccc(C(=O)N2CCC3(CCCCC3)C2)c(=O)[nH]1	13.75
CCN1CCN(c2ccccc2NC(=O)N(C)C2CCSC2)CC1 (stereo not shown)	-4.947
CNC(=O)c1cc2c(nc1NCC(C)C)CCN(S(C)(=O)=O)CC2	-9.563
CCc1nc(C2CCCN(C(=O)C3=NN(CC)C(=O)CC3)C2)no1 (stereo not shown)	28.44
Cc1ccc(CNc2cnn(CC(F)F)c2)cc1C	-9.653
CCCC(NC(=O)NCc1cccc(N(C)C)n1)c1ccccn1 (stereo not shown)	21.95
[H][C@@]12CS(=O)(=O)C[C@]1([H])N(C(=O)c1ccccc1C(C)=O)CCN2CCOC	-6.102
Cc1ncsc1CCN1CCC(N(C)Cc2noc(C(C)C)n2)C1 (stereo not shown)	-42.63
CC1CCN(C(=O)c2sccc2-n2cnnn2)CC1	29.95
O=C1OCCN1CCSc1nnnn1CC(F)(F)F	-44.91
O=C(CN(Cc1ccco1)C1CC1)Nc1ccc(Br)cn1	21.09
O=C(NCc1ccc(F)cc1)NCC(O)(c1cccs1)C1CC1 (stereo not shown)	4.144
Cc1cnn(C2CN(CC(=O)NCCOc3ccccc3)C2)c1	13.91
Cc1cccc(CCC(=O)N2CCOCC2c2c(C)n[nH]c2C)c1 (stereo not shown)	-19.99
CNC(=O)C1CN(c2ccnc(C)n2)CCN(C2CCOCC2)C1 (stereo not shown)	19.38
CCn1cc(NC(=O)N2CCN(CCSc3ccccc3)CC2)cn1	-6.319
O=C(NC1CCN(c2ccc(-c3ccccc3F)nn2)C1)c1cc[nH]n1 (stereo not shown)	21.94

5 of the entries, repeated:

structure,Percent Effect
Clc1ccc2c(c1)C=C(CNC1CCc3ncnn3C1)CO2 (stereo not shown),21.17
CNC(=O)C1CN(c2ccnc(C)n2)CCN(C2CCOCC2)C1 (stereo not shown),19.38
COCC(=O)N1CCC(c2cc(C(F)(F)F)c3c(C)noc3n2)CC1,-29.31
Cc1ccc(Cl)cc1N1CCC(CNC(=O)CCn2ccnc2)C1 (stereo not shown),-4.272
Cc1nc(S(=O)(=O)N2CCC3(CCCCC3)C2)cn1C,-41.25